Measurements reported in PubChem BioAssay AID1259308 (NCATS, 2017).
Assay: 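Genes whose loss raises luciferase production in HEK293 cells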 (primary screen). Cells: human HEK293 embryonic kidney cells stably expressing firefly luciferase (HEK-CMV-Luc2-Hygro). Reagent: single siRNA against human genes, 0.8 pmol siRNA per well. Time to read-out: 72 h. Read-out: 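Reporter luminescence and viable-cell signal on separate replicate plates, given as percent of non-targeting control and median/MAD z-scores, plus per-cell luciferase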. Direction: total luciferase, z-score and total luciferase, % of control: higher = more reporter protein produced; luciferase per cell, z-score: higher = more reporter output per viable cell; viable cells, % of control: higher = more viable cells. Rule for the call: 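Active when the median/MAD z-score for overall luciferase is greater than 3; a gene was taken forward for validation with new siRNAs if at least two of its three siRNAs passed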. Calls: active = raised luciferase; inactive = no rise.
In all, the deposit lists about 59,000 reagents; this is a part drawn at random. In the full data, about 1,510 (2.6%) were called active. 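Calls use total luciferase alone and ignore viability, so some active siRNAs may act by altering cell number.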 Reagents against one gene are numbered here.

target	reagent no.	total luciferase, z-score	total luciferase, % of control	luciferase per cell, z-score	viable cells, % of control	Call
SLC34A1	1	1.33	108	0.592	104	inactive
SLC34A1	2	1.41	110	0.497	108	inactive
SLC34A1	3	-1.29	56.2	-1.91	104	inactive
TAS1R3	1	0.479	91.4	0.815	82.4	inactive
TAS1R3	2	-1.4	54.1	-2.04	104	inactive
TAS1R3	3	1.94	121	1.45	91.9	inactive
MMP10	1	0.0117	82.1	-0.157	95.6	inactive
MMP10	2	-0.345	75	-0.729	102	inactive
MMP10	3	-0.21	77.7	-0.148	90.3	inactive
LGALS9	1	-1.01	61.8	-0.749	84.1	inactive
LGALS9	2	1.55	113	2.15	71.5	inactive
LGALS9	3	-1.19	58.2	-1.39	93.8	inactive
ZNF335	1	2.41	130	3.01	65.6	inactive
ZNF335	2	0.516	92.2	1.05	78	inactive
ZNF335	3	-0.103	79.8	-0.109	91.8	inactive
ZNF564	1	1.03	102	0.975	88.5	inactive
ZNF564	2	0.422	90.3	0.326	92.6	inactive
ZNF564	3	-1.31	55.9	-0.801	77.1	inactive
CCDC61	1	0.279	87.4	0.712	81	inactive
CCDC61	2	0.276	87.4	-0.0431	98.8	inactive
CCDC61	3	2.77	137	2.36	82.3	inactive
ARHGEF10L	1	0.0783	83.4	0.551	80.7	inactive
ARHGEF10L	2	0.744	96.7	0.386	97.6	inactive
ARHGEF10L	3	-1.29	56.3	-1.94	105	inactive
PTGES2	1	1.04	103	2.36	61.6	inactive
PTGES2	2	-1.17	58.6	-1.15	88.8	inactive
PTGES2	3	1.75	117	1.09	97.7	inactive
ADM5	1	-1.32	55.7	-1.44	90.9	inactive
ADM5	2	0.747	96.7	0.339	98.9	inactive
ADM5	3	0.0623	83.1	-0.311	101	inactive
PCDHB16	1	0.701	95.8	0.462	94.8	inactive
PCDHB16	2	-1.54	51.3	-1.61	87.7	inactive
PCDHB16	3	-0.519	71.6	0.351	72.9	inactive
CXorf65	1	1.13	104	2.2	65.3	inactive
CXorf65	2	-1.43	53.4	-1.13	80.4	inactive
CXorf65	3	1.72	116	1.75	81.8	inactive
BIN1	1	1.38	109	1.14	90.5	inactive
BIN1	2	-1.31	55.9	-1.15	84.5	inactive
BIN1	3	-0.791	66.1	-0.18	77.5	inactive
LRIG1	1	-0.844	65.1	-0.79	89.6	inactive
LRIG1	2	1.75	117	1.7	83.3	inactive
LRIG1	3	1.03	102	1.09	85.8	inactive
SMPD4	1	-0.0361	81.2	-0.0625	92.2	inactive
SMPD4	2	2.89	139	2.16	88.3	inactive
SMPD4	3	-0.668	68.6	0.175	73.2	inactive
TUBA1A	1	-1.41	53.8	-1.51	89.6	inactive
TUBA1A	2	0.428	90.4	0.404	90.8	inactive
TUBA1A	3	-0.908	63.8	-0.874	89.8	inactive
SEMA4D	1	-0.217	77.6	-0.371	95.6	inactive
SEMA4D	2	-0.0572	80.7	-0.352	99	inactive
SEMA4D	3	-0.25	76.9	-0.493	97.9	inactive
SEMA4D	4	-1.29	56.2	-0.66	74.8	inactive
SEMA4D	5	1.43	110	2.07	71.5	inactive
SEMA4D	6	-0.506	71.8	-1.4	116	inactive
LY6G6C	1	-1.36	54.8	-0.372	67.5	inactive
LY6G6C	2	-0.213	77.6	0.12	84.1	inactive
LY6G6C	3	2.15	125	1.14	103	inactive
NF1	1	0.394	89.7	-0.152	104	inactive
NF1	2	-1.3	56.1	-1.25	87.1	inactive
NF1	3	2.36	129	1.14	107	inactive
NF1	4	1.41	110	0.802	99.4	inactive
NF1	5	-0.666	68.6	1.24	55.4	inactive
NF1	6	-0.618	69.6	-1.45	114	inactive
CXXC4	1	0.36	89.1	0.0298	98.7	inactive
CXXC4	2	0.553	92.9	0.148	99.8	inactive
CXXC4	3	-0.439	73.2	-0.817	101	inactive
RPL13AP17	1	0.857	98.9	0.159	106	inactive
RPL13AP17	2	-0.243	77.1	-0.605	101	inactive
RPL13AP17	3	2	122	0.369	123	inactive
PIK3C2G	1	-0.508	71.8	-0.529	92.2	inactive
PIK3C2G	2	0.0432	82.7	0.626	78.4	inactive
PIK3C2G	3	-0.864	64.7	-1.71	113	inactive
ASCC3	1	-0.303	75.9	-0.178	88.8	inactive
ASCC3	2	-0.691	68.1	-1.03	100	inactive
ASCC3	3	0.782	97.4	1.82	67.4	inactive

Sorted by “luciferase per cell, z-score” (low to high): some entries from above.
target	reagent no.	total luciferase, z-score	total luciferase, % of control	luciferase per cell, z-score	viable cells, % of control	Call
CXXC4	3	-0.439	73.2	-0.817	101	inactive
RPL13AP17	2	-0.243	77.1	-0.605	101	inactive
CXXC4	2	0.553	92.9	0.148	99.8	inactive
RPL13AP17	1	0.857	98.9	0.159	106	inactive
